# Measurements from patent publication US12295397B2, “Dietary peptides” (Diet4Life APS, priority 2015, dated 2025).
# At least one peptide structure holds a part that was inferred or is arguable (an end, a ring closure or a residue). Residues, ends and D or L forms follow the SMILES beside them.
# Key:
# murine intestinal cells = assay: Ca2+ flux cell signaling assay in murine intestinal cells (mIC); assay type: cell-based; settings: truncation study, FIG. 6, murine intestinal cells
# human intestinal cells = assay: Ca2+ flux cell signaling assay in human intestinal cells (hIC); assay type: cell-based; settings: truncation study, FIG. 6, human intestinal cells
structure (smiles),measurement,setting,value
CC[C@H](C)[C@H](NC(=O)[C@H](Cc1ccc(O)cc1)NC(=O)[C@@H]1CCCN1)C(=O)N[C@@H](CC(C)C)C(=O)O [PYIL] (H-PYIL-OH; N-terminus and C-terminus assumed),Activity in mIC compared with full sequence ASDKPYIL,murine intestinal cells,two orders of magnitude lower activity
same,Activity in hIC,human intestinal cells,no activity
